Values from PubChem BioAssay AID1259308 (NCATS, 2017).
Purpose: 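Candidate targets for better recombinant protein yield in mammalian cells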 (primary screen). Cell system: human HEK293 embryonic kidney cells stably expressing firefly luciferase (HEK-CMV-Luc2-Hygro). Reagents: single siRNA against human genes, 0.8 pmol siRNA per well. Time to read-out: 72 h. Measured: 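Reporter luminescence and viable-cell signal on separate replicate plates, given as percent of non-targeting control and median/MAD z-scores, plus per-cell luciferase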. Scale: total luciferase, z-score: higher = more reporter protein produced. Hit rule: 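An siRNA counts as active if its total luciferase robust z-score exceeds 3; genes with two or more such siRNAs out of three were retested with fresh siRNAs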. Meaning of the calls: active = raised luciferase; inactive = no rise.
This is a random part of about 59,000 reagents. About 1,510 of all reagents (2.6%) count as active. 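Calls use total luciferase alone and ignore viability, so some active siRNAs may act by altering cell number.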 Reagents against one gene are numbered here. Further read-outs or replicates are left out here.

ZNF154 (zinc finger protein 154) #1 gave total luciferase, z-score 2.29; inactive.
Knock-down of ZNF154 (zinc finger protein 154) #2 came out at: total luciferase, z-score 0.68; inactive.
For ZNF154 (zinc finger protein 154) #3, the entry reads total luciferase, z-score 2.46; inactive.
Depletion of COX7C (cytochrome c oxidase subunit 7C) #1 gave: total luciferase, z-score 1.34; inactive.
After knock-down of COX7C (cytochrome c oxidase subunit 7C) #2, the screen gave total luciferase, z-score 0.659; inactive.
Against COX7C (cytochrome c oxidase subunit 7C) #3 the deposit lists total luciferase, z-score -0.166; inactive.
After knock-down of CMAS (cytidine monophosphate N-acetylneuraminic acid synthetase) #1 the results were total luciferase, z-score -1.75; inactive.
For CMAS (cytidine monophosphate N-acetylneuraminic acid synthetase) #2, the entry reads total luciferase, z-score -1.03; inactive.
After knock-down of CMAS (cytidine monophosphate N-acetylneuraminic acid synthetase) #3, the record shows total luciferase, z-score 0.455; inactive.
H3C2 (H3 clustered histone 2) #1 scored total luciferase, z-score 0.261; inactive.
H3C2 (H3 clustered histone 2) #2 gave total luciferase, z-score 1.57; inactive.
Depletion of H3C2 (H3 clustered histone 2) #3 gave: total luciferase, z-score 3.31; active.
GBX2 (gastrulation brain homeobox 2) #1 gave total luciferase, z-score 0.525; inactive.
Against GBX2 (gastrulation brain homeobox 2) #2 the deposit lists total luciferase, z-score -1.6; inactive.
GBX2 (gastrulation brain homeobox 2) #3 scored total luciferase, z-score 1.68; inactive.
GUCA2B (guanylate cyclase activator 2B) #1 showed total luciferase, z-score -0.264; inactive.
GUCA2B (guanylate cyclase activator 2B) #2 gave total luciferase, z-score -0.197; inactive.
With knock-down of GUCA2B (guanylate cyclase activator 2B) #3, the record shows total luciferase, z-score -1.87; inactive.
For MAP3K1 (mitogen-activated protein kinase kinase kinase 1) #1 the deposit lists total luciferase, z-score 1.42; inactive.
Silencing of MAP3K1 (mitogen-activated protein kinase kinase kinase 1) #2 gave: total luciferase, z-score 0.479; inactive.
MAP3K1 (mitogen-activated protein kinase kinase kinase 1) #3 scored total luciferase, z-score 0.372; inactive.

Hits, among the entries above:
H3C2 (H3 clustered histone 2) #3: total luciferase, z-score = 3.31; Call = active
